At least one structure is not confirmed: it was looked up by name or label, or the drawing left a doubt.
Legend:
[1] = tested on: Saccharomyces cerevisiae wild-type strain; experiment: Growth of wild-type strain in DPM medium with 5 mM or 80 mM KCl, OD 620 nm; type: cell-based; details: 30 μM, FIG. 10
Source text: However, the present results could not exclude that the inhibitory effect found for these substances can possibly also be attributed to an inhibition of other proteins which are essential for the growth of yeast cells. […]

[2] = tested on: Saccharomyces cerevisiae wild-type strain; type: cell-based
Experimental: FIG. 9: Growth of the Saccharomyces cerevisiae wild-type strain in DPM-HIS/-TRP 5 mM KCl medium in 96-well ELISA plates in the presence of 0.5 mM CsCl. The various inhibitors were employed at a final concentration of in each case 30 μM. To measure the cell density, a commercially available LacZ reporter system pYX232 by Ingenius (cat. No. MBV-032-10) was transformed into the yeast strains to be studied. Expression of the LacZ reporter gene was under the control of the constitutive Saccharomyces cerevisiae promotor TPI for the triose phosphate isomerase gene. The LacZ enzyme activity was measured via detecting the luminescence after 24 hours' growth (density of the starter culture: 0.01 OD620) using a commercially available assay system by TROPIX.
The values correspond to the average of in each case 4 measurements±SD. The two different assays were carried out independently of each other on two different days.
All substances, dissolved in DMSO, were employed in a final concentration of 30 μM. As a control, cells were measured with the same final concentration of 0.5% DMSO without substance, without DMSO addition or without substance.

Structure (SMILES): O=c1[nH]c2ccccc2n1C1CCN(CCCC(c2ccc(F)cc2)c2ccc(F)cc2)CC1 [Pimozide, 1-(4,4-bis(P-fluorophenyl)butyl)-4-(2-oxo-1-benzimidazolinyl)-piperidine]
- effect on activity of the endogenous potassium channels TRK1 and TRK2 ([1]; 5 mM versus 80 mM KCl): inhibits
- effect on growth of yeast cells at higher potassium concentrations ([1]; 80 mM KCl): absence of an inhibitory effect
- specificity of inhibition of the human HERG1 channel (comparison with wild-type strain) [2]: rather unspecific inhibitors

Reference: US20100167275A1, “Potassium channel mutants of the yeast Saccharomyces cerevisiae and their use for screening eukaryotic potassium channels” (sanofi-aventis Deutschland GmbH, priority 2000, published 2010)
